We go through 64 molecules from PubChem BioAssay AID493014 (National Center for Advancing Translational Sciences (NCATS), 2011).

This is one part of the list. Further columns of the screen follow, without active or inactive calls. Compounds called inactive in the main read-out are mostly missing here. Potencies come from curve fits of mixed quality, noted in brackets.

A short description of the experiment: qHTS Assay to Find Inhibitors of Chronic Active B-Cell Receptor Signaling. Particulars: ABC-DLBCL IkBa-CBG/CBR reporter, luminescence ratio (green luciferase fused to IkBa over red control in TMD8 lymphoma cells), 4 h. The gist of the method:
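Compounds up to 46 uM were incubated four hours with TMD8 cells whose green CBG68 luciferase is fused to IkappaBalpha; red CBR luminescence normalised the signal, and concentration-effect curves were fitted to fusion, red and ratio data.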

[1] abbreviates: measured here: CBR red luminescence, cell number.
The mark [2] stands for this setting: measured here: IkBa-CBG green luminescence.

A word on the AC50: it is the concentration at which the activity in the assay is half-maximal. For `CCc1cc(C(=O)OC)c(NC(=O)CCC(=O)O)s1`, the concentration at half-maximal activity (AC50) under setting [1] was 18.4 µM [rising, single point].

Consider `CN(C)S(=O)(=O)c1ccc(C(=O)Nc2nc3ccccc3[nH]2)cc1`, for which the AC50 under setting [2] was 2.82 µM [rising, full curve, poor fit].

Regarding `O=C1Nc2cc(C(F)(F)F)ccc2N2CCCCC12` (stereo unspecified), the AC50 under setting [1] is 35.5 µM [rising, single point].

As for `CNC(=S)N=Nc1c(O)[nH]c2ccccc12`, the AC50 under setting [1] is 29.1 µM [rising, single point].

Consider `O=C(NNC(=O)c1cccs1)c1ccc(Cl)cc1`, for which the AC50 under setting [1] was 18.4 µM [falling, partial curve].

For the molecule `Clc1cccc(CN2CCN(c3ncccn3)CC2)c1Cl`, the concentration at half-maximal activity (AC50) under setting [1] was 12.6 µM [rising, partial curve].

Turning to `CCOc1c(Nc2cccc(Cl)c2)c(=O)c1=O`, the AC50 under setting [1] is 35.5 µM [falling, single point].

Consider `Cc1ccc(C(=O)Nc2nccc(-c3cccs3)n2)cc1`, for which the half-maximal activity concentration (AC50) under setting [1] is 12.6 µM [falling, partial curve].

Take `O=C(/C=C/c1ccco1)OCC(=O)c1cccc([N+](=O)[O-])c1`: the half-maximal activity concentration (AC50) under setting [1] is 14.1 µM [rising, partial curve, poor fit].

With `C=CCn1c(SCC(=O)Nc2nc3ccccc3s2)nnc1-c1ccccc1O`, under setting [1], the AC50 is 18.4 µM [falling, single point].

Take `C=CCSc1ncccc1C(=O)NCc1ccc(C)cc1`: under setting [1], the concentration at half-maximal activity (AC50) is 7.94 µM [falling, partial curve, poor fit].

Consider `O=C(Nc1ccc(Br)cc1)c1cc(S(=O)(=O)NC2CCCC2)ccc1F`, for which the concentration at half-maximal activity (AC50) under setting [1] is 3.98 µM [falling, full curve].

Take `CC(=O)c1cccc(NC(=O)C(OC(=O)c2ccccc2NS(=O)(=O)c2cccs2)c2ccccc2)c1` (stereo unspecified): under setting [1], the concentration at half-maximal activity (AC50) was 3.66 µM [rising, full curve, poor fit].

On to `CNC(=S)N/N=C/c1cc(C)n(-c2ccc(Cl)c(Cl)c2)c1C`, for which the AC50 under setting [2] was 18.4 µM [falling, single point].

Take `CC(C)(C)c1ccc(C(=O)c2c[nH]c(C(=O)NCc3ccco3)c2)cc1`: the AC50 under setting [1] was 17.8 µM [rising, partial curve].

`Cc1cccc(NC(=O)c2ccc3c(c2)OCCO3)c1C`: the concentration at half-maximal activity (AC50) under setting [1] was 11.2 µM [falling, partial curve, poor fit].

`CCCCCC(=O)Nc1cc(N(C)C)nc2ccccc12`: the AC50 under setting [1] was 6.51 µM [rising, single point].

Take `CCCc1cc(=O)n2[nH]c(NCc3ccccc3Cl)nc2n1`: the AC50 under setting [1] is 20 µM [falling, partial curve].

With `COc1ccc(C(=O)Nc2ccc3c(c2)n(C)c(=O)n3C)cc1OC`, the AC50 under setting [2] was 25.1 µM [falling, partial curve, poor fit].

On to `Cc1ccc(N2C(=O)c3cccc4c(N)ccc(c34)C2=O)c2cccnc12`, for which the AC50 by setting is: under setting [1], 3.98 µM [rising, partial curve]; under setting [2], 1.58 µM [falling, partial curve].

On to `O=C1Nc2ccccc2C(O)(C(=O)NCc2ccco2)N1c1ccc(Cl)cc1` (stereo unspecified), for which, under setting [1], the concentration at half-maximal activity (AC50) was 2.06 µM [rising, partial curve, poor fit].

For `COc1ccc(-c2ccc(CCC(=O)O)n2NC(=O)c2ccc(O)cc2)cc1`, under setting [1], the AC50 was 22.4 µM [falling, single point].

In the case of `O=C(Nc1nnc(-c2ccccc2Cl)o1)c1nc2ccccc2s1`, the half-maximal activity concentration (AC50) under setting [1] is 3.66 µM [falling, partial curve].

With `CCCOc1ccc(CN(CCO)CCO)cc1C(=O)OC`, under setting [1], the concentration at half-maximal activity (AC50) is 6.31 µM [falling, single point].

For `COc1ccc(OC)c(NC(=O)C2CCCN2S(=O)(=O)c2cccc3nsnc23)c1` (stereo unspecified), under setting [1], the AC50 is 25.1 µM [rising, single point].

Regarding `CN(c1ccc(C(=O)N2CCCCCC2)cc1)S(=O)(=O)c1ccc(Cl)cc1`, the concentration at half-maximal activity (AC50) under setting [1] was 10 µM [falling, partial curve, poor fit].

Turning to `CCOC(=O)CSc1nnc(CNC(=O)c2cccc(C)c2)n1C`, the AC50 under setting [1] was 31.6 µM [rising, single point].

Turning to `COC(=O)c1c(NC(=O)COC(=O)Cn2cnc3ccccc32)sc2c1CCCC2`, the AC50 under setting [1] was 14.6 µM [rising, partial curve].

Turning to `N=c1n(Cc2ccccc2)c2ccccc2n1Cc1ccccc1`, under setting [1], the AC50 is 29.1 µM [falling, single point].

As to `O=C1c2ccccc2C(=O)N1c1ccc(Cl)cn1`, the AC50 under setting [1] is 16.4 µM [rising, partial curve, poor fit].

`COc1ccc(CNc2ccc(C)c(C)c2)cc1`: under setting [1], the AC50 was 35.5 µM [rising, single point].

`CCOC(=O)c1sc2nc(C)nc(NCCc3ccccn3)c2c1C`: under setting [1], the concentration at half-maximal activity (AC50) was 15.8 µM [falling, partial curve, poor fit].

For the molecule `CCCn1c(=O)c(C(=O)NCc2ccco2)c(O)c2ccccc21`, under setting [1], the concentration at half-maximal activity (AC50) was 5.62 µM [rising, single point].

Turning to `CC(C)CCNC(=O)C1CCN(S(=O)(=O)c2ccc3c(c2)CCC(=O)N3)CC1`, the concentration at half-maximal activity (AC50) under setting [1] was 25.9 µM [rising, partial curve, poor fit].

As for `C=CC[C@@H](CC(=O)N(CCO)Cc1ccccc1)C(=O)N[C@H](COC(=O)[C@@H](CC=C)Cc1ccc(F)cc1)Cc1c[nH]c2ccccc12`, the half-maximal activity concentration (AC50) under setting [1] is 9.2 µM [falling, partial curve].

For the molecule `Cc1cc(C)n2nc(SCc3cc(=O)oc4cc(O)ccc34)nc2n1`, under setting [1], the AC50 is 20.6 µM [rising, partial curve, poor fit].

With `Cn1c(SCC(=O)Nc2nc(C(C)(C)C)cs2)nnc1C1CC1`, under setting [1], the AC50 was 14.1 µM [rising, single point].

For `Cc1ccc(N(CCC#N)C(=O)CCl)cc1C`, the half-maximal activity concentration (AC50) under setting [1] is 20.6 µM [falling, single point].

For `Cc1ccc(S(=O)(=O)Nc2ccccc2N(C)S(=O)(=O)c2ccc(C)cc2)cc1`, the concentration at half-maximal activity (AC50) under setting [1] was 5.8 µM [falling, single point].

For `OCCN(CC(O)Cn1ccc2ccccc21)CC(O)Cn1ccc2ccccc21` (stereo unspecified), the AC50 under setting [1] is 10 µM [falling, partial curve, poor fit].

On to `COc1ccc(NC(=O)c2sc(NC(=O)C3CC3)nc2C)cc1`, for which, under setting [1], the AC50 was 8.91 µM [falling, partial curve, poor fit].

For the molecule `CCc1cc(C(=O)COc2ccccc2F)c(O)cc1O`, the AC50 under setting [1] is 3.66 µM [rising, full curve, poor fit].

`O=C(Nc1ccc2c(c1)OCO2)N1CCN(S(=O)(=O)c2ccc(Cl)cc2)CC1`: the AC50 under setting [1] was 6.51 µM [falling, single point].

For `Cc1ccc(S(=O)(=O)Oc2ccccc2/C=N/Nc2ccc(C(=O)O)cc2)cc1`, under setting [1], the half-maximal activity concentration (AC50) is 1.78 µM [falling, partial curve].

On to `CC1=C(C(=O)Nc2cccnc2)C(c2ccccn2)n2nnnc2N1` (stereo unspecified), for which the AC50 under setting [1] was 35.5 µM [falling, single point].

`COc1ccc(OCC(O)Cn2c(=N)n(CCN3CCCCC3)c3ccccc32)cc1` (stereo unspecified): the AC50 under setting [1] is 35.5 µM [falling, single point].

As for `O=[N+]([O-])c1c(Nc2ccccn2)cc(Cl)c2nonc12`, the AC50 under setting [1] was 35.5 µM [rising, single point].

As to `O=C(OCn1nnc2ccccc2c1=O)C1COc2ccccc2O1` (stereo unspecified), the concentration at half-maximal activity (AC50) under setting [1] was 4.11 µM [rising, single point].

With `Cc1ccc(-c2cc(-c3ccccc3)c(C#N)c(N)n2)o1`, the AC50 reads like this: under setting [1], 11.6 µM [falling, partial curve]; under setting [2], 13 µM [rising, partial curve, poor fit].

Consider `O=C(CCC1N=C2c3ccccc3N=C(SCc3ccc(Cl)cc3)N2C1=O)NCc1cccs1` (stereo unspecified), for which the half-maximal activity concentration (AC50) under setting [1] is 15.8 µM [falling, single point].

For `COCC(C)n1c(C)cc(C(=O)COC(=O)C2=NN(c3ccccc3)C(=O)CC2)c1C` (stereo unspecified), the AC50 under setting [1] was 35.5 µM [rising, single point].

Turning to `Cc1nnc(SCC(=O)N2N=C(c3ccc(Cl)cc3)CC2c2ccco2)[nH]c1=O` (stereo unspecified), the AC50 under setting [1] was 2.24 µM [falling, partial curve, poor fit].

In the case of `CCSc1nnc(NC(=O)CSc2nnc(CNC(=O)c3cc(OC)c(OC)c(OC)c3)o2)s1`, the AC50 under setting [1] was 29.1 µM [rising, single point].

On to `COc1ccc(OC)c(N(CC(=O)Nc2ccc3c(c2)OCO3)S(=O)(=O)c2ccccc2)c1`, for which the AC50 under setting [1] was 29.1 µM [falling, single point].

Consider `CN(C)c1cccc(C(=O)NNC(=O)C23CC4CC(CC(C4)C2)C3)c1`, for which the AC50 under setting [1] is 0.326 µM [rising, full curve, poor fit].

As for `COc1ccc(/C=C2/S/C(=N/N=C3\CC4CCC3(C)C4(C)C)NC2=O)cc1` (stereo unspecified), the concentration at half-maximal activity (AC50) under setting [1] is 1.58 µM [rising, full curve, poor fit].

Regarding `COc1ccc(Oc2cc(C)c3cccc(C)c3n2)cc1`, under setting [1], the AC50 is 29.1 µM [rising, single point].

Turning to `COC(=O)CCN(C(=O)c1cc(OC)c(OC)c(OC)c1)c1ccccn1`, the half-maximal activity concentration (AC50) under setting [1] was 29.1 µM [rising, single point].

For `Cc1cccc(NC(=S)NCCSc2ccc(Cl)cc2)c1`, the AC50 under setting [1] is 2 µM [rising, partial curve, poor fit].

`COc1ccc(OC)c(C(=O)c2coc3ccc(OCC(=O)O)cc23)c1`: the AC50 under setting [1] is 32.6 µM [falling, single point].

With `S=c1[nH]nc(Cc2cccc3ccccc23)o1`, the AC50 under setting [1] is 6.51 µM [rising, partial curve, poor fit].

Regarding `Cc1cc(C(=O)OCC(=O)c2cccc([N+](=O)[O-])c2)c2cccc(C)c2n1`, under setting [1], the AC50 is 0.282 µM [falling, partial curve, poor fit].

`O=C(c1ccco1)N1CCn2cccc2C1c1ccccc1` (stereo unspecified): the AC50 under setting [2] was 6.31 µM [rising, full curve, poor fit].

Consider `O=C1C=C(c2ccc(OC(F)(F)F)cc2)C[C@@H](c2ccc(Cl)cc2)C1`, for which, under setting [1], the concentration at half-maximal activity (AC50) is 18.4 µM [rising, single point].
